Literature values, collected in patent US20030139433A1, “Method for the treatment of overactive bladder” (priority 2000, published 2003).
Some entries share one result that the patent states for a list of compounds.

Tested on: overactive bladder
Conditions: OAB patients; cited from earlier work

With Cc1ccc(O)c([C@H](CCN(C(C)C)C(C)C)c2ccccc2)c1 [tolterodine] as the compound, how does the Subjective efficacy rates read?
The Subjective efficacy rates was 20-50%.
